Source: PubChem BioAssay AID651660 (Broad Institute, 2012)
Where “and” joins values, the source holds several entries; their conditions need not be identical. Equal values may be shown once. Hit rate of the full screen: of about 1,900 compounds, about 15 (0.8%) were called active.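 Rule for the calls: active = every replicate shows at least 50% inhibition; inconclusive = mean inhibition at least 50% but some replicate below; inactive = the rest.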 Some of the results follow.

Amino acid sequences for entries named in this document (tags omitted). A change or cut given only in a name is not applied to a line headed by its entry.
UniProt P43351: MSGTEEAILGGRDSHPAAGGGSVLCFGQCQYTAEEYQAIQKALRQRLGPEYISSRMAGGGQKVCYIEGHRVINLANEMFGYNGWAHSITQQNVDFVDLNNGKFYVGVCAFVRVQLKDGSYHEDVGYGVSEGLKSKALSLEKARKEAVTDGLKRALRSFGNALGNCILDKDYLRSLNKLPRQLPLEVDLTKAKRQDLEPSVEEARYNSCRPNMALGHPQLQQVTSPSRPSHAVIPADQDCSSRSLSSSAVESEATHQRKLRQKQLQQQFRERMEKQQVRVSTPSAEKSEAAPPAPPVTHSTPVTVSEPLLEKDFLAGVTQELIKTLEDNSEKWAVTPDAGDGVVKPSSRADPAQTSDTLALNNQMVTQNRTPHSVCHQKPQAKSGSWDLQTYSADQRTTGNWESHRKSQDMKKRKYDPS

Each compound was assayed against DNA repair protein RAD52 homolog (Homo sapiens) (UniProt P43351) (assay: inhibition of RAD52-mediated strand annealing – biochemical, FRET, single point, primary screen (AID 651660;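 note: 0% = median of neutral control wells and 100% = median of positive control wells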)). Details: Recombinant RAD52 ssDNA annealing, FRET fluorescence, 30 min; at 18.7 µM; hits give high values.

inhibition, inactive:
COc1ccc2[nH]c(=O)c3c(c2c1)OC(C)(C)C=C3 -5.72%
O=C(NC(=S)Nc1ccc(N2CCN(C(=O)c3ccccc3)CC2)cc1)c1cccs1 -1.18%
COc1cc(/C=C/C(=O)O)cc(S(=O)(=O)NCCCO)c1OC -11%
Cc1ccc(-c2nnc(-c3ccc4c(c3)OCO4)o2)cc1 -10.6%
CC[N+](C)(C)c1cccc(O)c1 -5.91%
COc1ccc(C(=O)NCC2OCCc3ccccc32)cc1 (configuration not stated) -3.94%
CCCCN(CCCC)CCCOC(=O)c1ccc(N)cc1 3.29%
O=C(O)CCCCCCCC(=O)O -9.18%
O=C(NCc1ccc2c(c1)OCO2)c1ccc2c(c1)OCCO2 -8.16%
NS(=O)(=O)c1cc(C2(O)NC(=O)c3ccccc32)ccc1Cl (configuration not stated) -8.05%
O=C(NC(=S)Nc1ccc2c(c1)OCCO2)c1ccccc1F -2.94%
CC(=O)Nc1ccc(OS(=O)(=O)c2c(C)cc(C)cc2C)cc1 7.13%
COc1ccc(NC(=O)C2CCCN2C(=O)OC(C)(C)C)cc1 (configuration not stated) -0.715%
CCCc1cc(C(N)=S)ccn1 -4.37%
CC(=O)c1cc2c(cc1NC(=O)c1ccco1)OCCO2 -17.2%
CC(C)CCOCC(=O)Nc1cccc(C(=O)O)c1 -8.13%
Cc1ccc2[nH]c3c(c2c1)CN(C)CC3 -1.25%
CC(=O)OC(CC(=O)O)C[N+](C)(C)C (configuration not stated) -2.75%
CC1(C)Cc2ccccc2C(C(Cc2ccccc2)C(N)=O)=N1 (configuration not stated) 3.53%
COc1ccc2oc(C)c(C(N)=O)c2c1 2.34%
Cn1cc(CN(CCO)Cc2cccs2)c(-c2cccc(Cl)c2)n1 12.5%
CN1CCC(=C2c3ccccc3C=Cc3ccccc32)CC1 3.15%
CNCCC=C1c2ccccc2CCc2ccccc21 4.52%
CC[C@]1(O)CC2CN(CCc3c([nH]c4ccccc34)[C@@](C(=O)OC)(c3cc4c(cc3OC)N(C=O)[C@H]3[C@@](O)(C(=O)OC)[C@H](OC(C)=O)[C@]5(CC)C=CCN6CC[C@]43[C@@H]65)C2)C1 (some centres not stated) -22.9%
O=C(c1ccccc1F)c1cc2c(cc1[N+](=O)[O-])OCCO2 -0.243%
Cc1ccc(S(=O)(=O)NC(=O)Nc2cc(C)ccc2F)cc1 -14.5%
O=C1OC(c2ccccc2)=C/C1=C/c1cccs1 -5.59%
O=C1C(Cc2ccccc2)NC(=S)N1c1ccccc1 (configuration not stated) -7.95%
Cc1ccc(/C(=C\CN2CCCC2)c2ccccn2)cc1 4.68%
O=C(O)CCCN1C(=O)NC2NC(=O)NC21 (configuration not stated) -3.7%
CCOc1ccc(NC2OC(C)C(O)C(O)C2O)c([N+](=O)[O-])c1 (configuration not stated) -2.79%
CC1(C)CC(O)(CNCc2ccc3c(c2)OCO3)CCO1 (configuration not stated) 9.6%
COc1ccc2c3c([nH]c2c1)C1(NCC3)C(=O)Nc2ccccc21 (configuration not stated) 3.02%
Cn1nc(-c2ccc(Cl)cc2)nc2c(=O)n(C)c(=O)nc1-2 -131%
COc1ccccc1/C=C/CN1CCN(Cc2ccc(F)cc2)C(CCO)C1 (configuration not stated) 2.58%
NC(=O)c1ncn([C@@H]2O[C@H](CO)[C@@H](O)[C@H]2O)c1O 1.91%
COc1ccccc1-c1ccc(/C=C2/C=C(CC(C)C)OC2=O)o1 -105%
O=C(OCC1CCCN2CCCCC12)c1ccc2c(c1)OCO2 (configuration not stated) -3.97%
CC1(C)C(=O)OC(/C=C\c2ccccc2)C(C)(C)C1=O (configuration not stated) -5.97%
CCc1cc(C(N)=S)ccn1 2.48%
Cc1ccc2c(c1)c(=O)c1c3n2CCN(C(=O)CCl)C3CC1 (configuration not stated) -8.58%
COc1cc(C(=O)OCCCN(C)C)cc(OC)c1OC 2.44%
COc1ccc2c(c1OC)C(C1c3c(cc4c(c3OC)OCO4)CCN1C)OC2=O (configuration not stated) -13.9%
CCOc1ccc(CC2c3cc(OCC)c(OCC)cc3CCN2C(=O)CN2CCN(C)CC2)cc1OCC (configuration not stated) -1.81%
COC(=O)c1[nH]c2ccc(F)cc2c1NC(=O)C1=COCCO1 0.192%
O=C(NCCO)c1ccc2[nH]c3ccccc3c2c1 1.28%
COc1ccc(CN2CCCC(C(=O)c3ccc(Cl)cc3)C2)cc1Cn1cccn1 (configuration not stated) 1.02%
CC(=O)[C@@]1(O)CC[C@H]2[C@@H]3CCC4=CC(=O)CC[C@]4(C)[C@H]3[C@@H](O)C[C@@]21C 5.17%
COc1cc(C)nc(-n2nc(C)cc2OC)n1 5.35%
CS(=O)(=O)Nc1ccc([N+](=O)[O-])cc1Oc1ccccc1 -9.28%
Cc1coc2cc3oc(=O)c(CCC(=O)O)c(C)c3cc12 -8.02%
NS(=O)(=O)c1cc2c(cc1Cl)NCNS2(=O)=O -9.56%
CC(C)Cn1c(=S)[nH]c2cc(C(=O)O)ccc2c1=O -8.48%
NC(N)=N/N=C/c1c(Cl)cccc1Cl -8.31%
O=c1[nH]c(=O)n([C@H]2C[C@H](O)[C@@H](CO)O2)cc1F -5.36%
O=C(N1CCCC1)C12CC3CC(C1)CC(C(=O)N1CCCC1)(C3)C2 -7.19%
CS(=O)(=O)Nc1cccc(C(=O)CC2(O)C(=O)Nc3ccc(Br)cc32)c1 (configuration not stated) 2.32%
COC1=CC(=O)CC(C)C12Oc1c(Cl)c(OC)cc(OC)c1C2=O (configuration not stated) -4.02%
O=C(/C=C/c1c[nH]c2ccccc12)c1cccc2ccccc12 -25.7%
CCc1cc(=O)oc2cc(OCc3nn[nH]n3)ccc12 -15.2%
CC(=O)Oc1cc(C(C)C)c(OCCN(C)C)cc1C -0.396%
COc1ccc2cc[nH]c2c1 0.11%
CSc1ccc(/C=N/N2CCN(Cc3ccc(C)cc3C)CC2)cc1 -3.08%
C[C@H](NC(=O)Nc1ccccc1F)C(=O)O -8.47%
C[N+]12CCC(CC1)C(OC(=O)C(O)(c1ccccc1)c1ccccc1)C2 (configuration not stated) 5.56%
CC(=O)N1CCn2c3c(c4cc(C)ccc42)CCCC31 (configuration not stated) -75.6%
CC(C)OC(=O)CC12CN3CN(C1)CC(CC(=O)OC(C)C)(C3)C2=O -5.5%
Cc1ccc(P(=O)(CSC(=N)N)c2ccc(C)cc2)cc1 10.8%
CC1(C)CC(C(CC(=O)O)c2ccccc2)CCO1 (configuration not stated) -2.72%
CC(=O)[C@H]1CC[C@H]2[C@@H]3CCC4=CC(=O)CC[C@]4(C)[C@H]3[C@H](O)C[C@]12C -1.41%
O=C(c1cc2cc(Br)ccc2o1)N1CCCC1 -8.1%
Cn1cc(/C=C/C(=O)c2ccccc2)c2ccccc21 -14.1%
COc1ccc(-c2c3c(=O)n(C)c(=O)n(C)c3cn2C2CCCCC2)cc1 -8.93%
C[C@H]1C[C@H]2[C@@H]3CCC4=CC(=O)C=C[C@]4(C)[C@@]3(Cl)[C@@H](O)C[C@]2(C)[C@@]1(O)C(=O)CO 1.9%
COc1cccc2cc(-c3ccccc3)c(=O)oc12 2.99%
COc1cc2nc(N3CCN(C(=O)C4CCCO4)CC3)nc(N)c2cc1OC (configuration not stated) 44.1% and 30.3%
CS(=O)(=O)Oc1ccc2c(c1)O/C(=C\C=C\c1ccccc1)C2=O -125%
Nc1ncnc2c1ncn2C1OC(CO)C(O)C1O (configuration not stated) -0.087%
CCCCC[C@H](O)/C=C/[C@@H]1[C@@H](C/C=C\CCCC(=O)O)[C@H]2CO[C@@H]1C2 -6.4%
COc1ccc(O)c(C(=O)/C=C/c2cc3ccccc3o2)c1 -5.81%
O=c1[nH]cc(F)c(=O)[nH]1 -2.47%
CCc1cc2c3c(c(=O)oc2cc1O)CCCC3 5.35%
CCNC(=S)N1CCN(CCN2C(=O)c3cccc4cccc(c34)C2=O)CC1 1.33%
CC(=O)c1cccc(NC(=O)N[C@@H](CC(C)C)C(=O)O)c1 0.413%
CC1(C(=O)O)CCC(C(=O)NC2CCCCCC2)C1(C)C (configuration not stated) -2.34%
N/C(=N/OS(=O)(=O)c1ccc([N+](=O)[O-])cc1)c1ccncc1 2.58%
COc1cc2c(cc1O)CC[C@@H]1[C@@H]2CC[C@]2(C)[C@@H](O)CC[C@@H]12 2.28%
NS(=O)(=O)c1ccc(CCNC(=O)C2CCCN2C(=O)OCc2ccccc2)cc1 (configuration not stated) 0.667%
Clc1ccccc1CN1CCc2sccc2C1 -5.04%
O=C(/C=C/c1ccccc1)NC(=O)c1ccccc1O -4.92%
C=CCNc1nc2c(c(=O)n(C)c(=O)n2C)n1CC(=C)C 3.2%
COc1ccc2nc(C)cc(Nc3ccccc3O)c2c1 35.3%
CN(C)CCCN1c2ccccc2CCc2ccc(Cl)cc21 16%
CC1(C)OC2OC(C(=O)N/N=C/c3ccccc3F)C3OC(C)(C)OC3C2O1 (configuration not stated) -8.91%
O=C(c1ccc([N+](=O)[O-])cc1)N1CCSC1c1ccccc1Cl (configuration not stated) 0.635%
O=C1CC(c2ccc(OCCCCCOc3ccc(C4CC(=O)NC4=O)cc3)cc2)C(=O)N1 (configuration not stated) 0.883%
CC(C)CC(=O)NC(NC(=O)CC(C)C)c1cccc([N+](=O)[O-])c1 -6.94%
